Reference: CN106749661A
Results are given in words; binding and its absence hold for the method and conditions named. Some results given as binding are weak or reduced against the parent protein; the word gives no strength. For part of these data: Tags and fused reporters may be left off the sequences shown.

Legend:
[1] = target: T1, PSMP原核蛋白 (PSMP-his6) (human) (UniProt Q1L6U9); experiment: ELISA
T1 sequence (looked up): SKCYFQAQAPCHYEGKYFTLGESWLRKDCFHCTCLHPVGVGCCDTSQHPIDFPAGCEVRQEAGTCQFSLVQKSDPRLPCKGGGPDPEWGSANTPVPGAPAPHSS

[2] = target: T1, PSMP原核蛋白 (PSMP-his6) (human); experiment: Western blot
[3] = target: T2, 外源性过表达PSMP的293T细胞裂解液里面的PSMP (human) (UniProt Q1L6U9); experiment: Western blot of 293T cell lysate
T2 sequence (looked up): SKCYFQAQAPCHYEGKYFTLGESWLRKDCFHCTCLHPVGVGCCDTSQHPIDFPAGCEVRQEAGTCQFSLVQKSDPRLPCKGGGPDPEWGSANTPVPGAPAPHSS

Measured: binding

B1: 抗PSMP的单克隆抗体3D5 (antibody, V domains shown)
VH: EVQLQQSGPELVKPGASVKISCKASGYSFTGYFMNWVMQSHGKSLEWIGRINPYNGDTFYNQKFKGKATLTVDKSSSTAHMELRSLASEDSAVYYCARGGDGYYAFAYWGQGTLVTVSA
VL: NIVMTQSPKSMSMSVGERVTLSCRASENVGTYVSWYQQKPEQSPKLLIYGASNRYTGVPDRFTGSGSATDFTLTISSVQAEDLADYHCGQSYSYMYTFGGGTKLEIKR
binds: [1] | [2] | [3]
